Results are given in words; binding and its absence hold for the method and conditions named. Binding seen in cells or lysates may run through a third protein. Some entries that bind do so weakly or less than the wild type.
Biological target: T1, long-chain acyl-CoA synthase 6 (ACSL6) (human (endogenous in H460 and H1299)) (UniProt Q9UKU0)
T1 sequence: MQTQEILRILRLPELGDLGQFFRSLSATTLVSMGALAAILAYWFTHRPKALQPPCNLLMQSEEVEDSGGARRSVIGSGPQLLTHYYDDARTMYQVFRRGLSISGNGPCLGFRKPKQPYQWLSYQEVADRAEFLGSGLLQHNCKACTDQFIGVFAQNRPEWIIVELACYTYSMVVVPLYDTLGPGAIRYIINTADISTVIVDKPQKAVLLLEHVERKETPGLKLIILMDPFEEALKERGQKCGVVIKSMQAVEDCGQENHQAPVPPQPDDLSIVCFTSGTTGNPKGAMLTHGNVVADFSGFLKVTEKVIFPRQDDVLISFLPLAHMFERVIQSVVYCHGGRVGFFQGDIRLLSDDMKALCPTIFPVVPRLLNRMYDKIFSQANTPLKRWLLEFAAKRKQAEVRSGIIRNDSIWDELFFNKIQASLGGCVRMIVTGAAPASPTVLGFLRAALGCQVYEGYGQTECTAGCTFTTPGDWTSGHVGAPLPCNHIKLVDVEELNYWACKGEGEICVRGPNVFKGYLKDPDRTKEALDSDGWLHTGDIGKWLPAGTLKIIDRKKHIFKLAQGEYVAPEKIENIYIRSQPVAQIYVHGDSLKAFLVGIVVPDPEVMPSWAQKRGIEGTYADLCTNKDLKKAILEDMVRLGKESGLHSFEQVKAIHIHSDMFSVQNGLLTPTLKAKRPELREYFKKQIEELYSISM
Test: co-IP; lysates of WT and ACSL6-overexpressing H460 and H1299 cells; immunoprecipitation overnight at 4 °C with 2 µg anti-ACSL6, Protein A+G magnetic beads, washes with NETN-300 and IP lysis buffer; western blot

- binding: binds
B1: Friend leukemia integration 1 transcription factor (FLI1) (protein, UniProt Q01543 1-452)
chain: MDGTIKEALSVVSDDQSLFDSAYGAAAHLPKADMTASGSPDYGQPHKINPLPPQQEWINQPVRVNVKREYDHMNGSRESPVDCSVSKCSKLVGGGESNPMNYNSYMDEKNGPPPPNMTTNERRVIVPADPTLWTQEHVRQWLEWAIKEYSLMEIDTSFFQNMDGKELCKMNKEDFLRATTLYNTEVLLSHLSYLRESSLLAYNTTSHTDQSSRLSVKEDPSYDSVRRGAWGNNMNSGLNKSPPLGGAQTISKNTEQRPQPDPYQILGPTSSRLANPGSGQIQLWQFLLELLSDSANASCITWEGTNGEFKMTDPDEVARRWGERKSKPNMNYDKLSRALRYYYDKNIMTKVHGKRYAYKFDFHGIAQALQPHPTESSMYKYPSDISYMPSYHAHQQKVNFVPPHPSSMPVTSSSFFGAASQYWTSPTGGIYPNPNVPRHPNTHVPSHLGSYY

Source: publication PMC11516120
